Results from patent publication US8399522B2, “3.2.1-bicyclo-octane compounds” (International Flavors & Fragrances Inc, priority 2010, dated 2013).

assay: Odor description (fragrance notes)

Compound	odor notes as described
CC1=CCC2(C)CCC1C2 (stereo not drawn) [2,5-Dimethyl-bicyclo[3.2.1]oct-2-ene]	green, terpineol, woody, and black pepper notes
CC12CCC(C1)C1(C)OC1C2 (stereo not drawn) [Structure 1, 2,6-dimethyl-3-oxa-tricyclo[4.2.1.0*2,4*]nonane]	camphor, woody, fresh, sweet, minty, and thujone-like notes
CC1C(=O)CC2(C)CCC1C2 (stereo not drawn) [Structure 2, 1,4-dimethyl-bicyclo[3.2.1]octan-3-one]	woody, fresh, minty, and menthol notes
C=CCC1(C)C(=O)CC2(C)CCC1C2 (stereo not drawn) [Structure 3, 4-allyl-1,4-dimethyl-bicyclo[3.2.1]octan-3-one]	amber, fruity, dusty, and musty notes
CC1CC2(C)C3CCC(C)(C3)CC2O1 (stereo not drawn) [Structure 4, 2,4,8-trimethyl-5-oxa-tricyclo [6.2.1.0*2,6*]undecane]	green, earthy, fruity, fresh, and woody notes
CC1C2CCC(C)(C2)CC12OCCO2 (stereo not drawn) [Structure 5, 1,4-dimethyl-bicyclo[3.2.1]octan-3-dioxolane]	fruity, fresh, and camphor notes
